The record followed here is paper PMC9424285.

For the experiment, the target named is T1, phospholipase C-γ1 (PLC-γ1) (human (endogenous in KYSE410 and KYSE510)) (UniProt P19174).
T1 sequence: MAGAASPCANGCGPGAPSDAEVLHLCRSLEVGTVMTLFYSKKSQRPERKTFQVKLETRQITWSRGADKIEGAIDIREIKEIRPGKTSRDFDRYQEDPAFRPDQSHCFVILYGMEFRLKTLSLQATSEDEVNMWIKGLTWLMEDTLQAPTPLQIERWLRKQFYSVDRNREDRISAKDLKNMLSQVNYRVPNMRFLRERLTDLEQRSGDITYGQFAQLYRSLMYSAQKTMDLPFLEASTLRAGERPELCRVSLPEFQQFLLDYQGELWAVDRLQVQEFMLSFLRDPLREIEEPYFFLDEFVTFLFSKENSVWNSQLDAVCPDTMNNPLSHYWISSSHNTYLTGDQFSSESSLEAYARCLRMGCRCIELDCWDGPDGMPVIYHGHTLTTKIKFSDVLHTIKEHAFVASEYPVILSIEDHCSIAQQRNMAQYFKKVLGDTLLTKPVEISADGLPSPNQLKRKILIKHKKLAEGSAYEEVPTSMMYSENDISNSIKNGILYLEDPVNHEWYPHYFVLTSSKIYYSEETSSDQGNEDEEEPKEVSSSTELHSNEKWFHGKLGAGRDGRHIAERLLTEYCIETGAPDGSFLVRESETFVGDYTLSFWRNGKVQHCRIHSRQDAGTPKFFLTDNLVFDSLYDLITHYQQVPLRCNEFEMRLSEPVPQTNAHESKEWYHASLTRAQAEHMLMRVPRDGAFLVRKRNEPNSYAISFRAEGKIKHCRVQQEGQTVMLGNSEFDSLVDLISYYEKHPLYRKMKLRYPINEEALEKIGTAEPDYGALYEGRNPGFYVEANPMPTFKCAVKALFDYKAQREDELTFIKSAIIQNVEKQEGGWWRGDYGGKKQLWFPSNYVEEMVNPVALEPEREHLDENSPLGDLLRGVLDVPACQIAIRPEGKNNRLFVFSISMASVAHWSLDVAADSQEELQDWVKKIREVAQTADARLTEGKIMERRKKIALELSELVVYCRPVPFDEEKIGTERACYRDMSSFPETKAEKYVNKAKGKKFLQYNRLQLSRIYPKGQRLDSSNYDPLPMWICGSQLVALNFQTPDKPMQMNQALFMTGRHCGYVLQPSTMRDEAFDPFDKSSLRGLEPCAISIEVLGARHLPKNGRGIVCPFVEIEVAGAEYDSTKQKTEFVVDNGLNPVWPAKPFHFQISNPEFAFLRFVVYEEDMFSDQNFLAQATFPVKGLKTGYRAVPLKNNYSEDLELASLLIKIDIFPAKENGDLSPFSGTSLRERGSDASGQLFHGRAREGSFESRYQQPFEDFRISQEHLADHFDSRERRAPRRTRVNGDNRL
Put plainly: co-IP; immunoprecipitation-immunoblotting of KYSE410 or KYSE510 cells treated with CCL22 (50 ng/ml); PLC-γ1 against its partners. A general note: Immunoblotting shows a protein as a band on a membrane.

No constants are given. Whether binding was seen depends on the method and setting. In cells and extracts the contact can be indirect.

B1: C-C motif chemokine receptor 4 (CCR4) (receptor, UniProt P51679 1-360)
chain: MNPTDIADTTLDESIYSNYYLYESIPKPCTKEGIKAFGELFLPPLYSLVFVFGLLGNSVVVLVLFKYKRLRSMTDVYLLNLAISDLLFVFSLPFWGYYAADQWVFGLGLCKMISWMYLVGFYSGIFFVMLMSIDRYLAIVHAVFSLRARTLTYGVITSLATWSVAVFASLPGFLFSTCYTERNHTYCKTKYSLNSTTWKVLSSLEINILGLVIPLGIMLFCYSMIIRTLQHCKNEKKNKAVKMIFAVVVLFLGFWTPYNIVLFLETLVELEVLQDCTFERYLDYAIQATETLAFVHCCLNPIIYFFLGEKFRKYILQLFKTCRGLFVLCQYCGLLQIYSADTPSSSYTQSTMDHDLHDAL
With B1, the binding entry is “no binding”.
